Data as given in paper PMC9553925.
Results are given in words; binding and its absence hold for the method and conditions named. Binding can be weak; no strength is given.

Molecular target: T1, ATP synthase subunit-a (T. brucei) (T. brucei (endogenous in procyclic Lister strain 427)) (UniProt P24499)
T1 sequence: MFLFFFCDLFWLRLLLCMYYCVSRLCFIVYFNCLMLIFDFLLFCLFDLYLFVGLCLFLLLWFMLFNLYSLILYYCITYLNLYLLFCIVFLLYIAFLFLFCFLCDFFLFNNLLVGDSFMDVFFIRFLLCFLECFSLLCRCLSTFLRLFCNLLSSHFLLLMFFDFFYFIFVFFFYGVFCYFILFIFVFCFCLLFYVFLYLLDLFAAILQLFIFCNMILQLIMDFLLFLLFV
Assay: cryo-EM structure; ATP synthase dimers purified from T. brucei procyclic mitochondria in GDN with added β-DDM and phospholipids, pH 8.0; consensus dimer 3.2 Å, membrane region 2.7 Å, peripheral stalk 3.7 Å, rotor 3.7 Å, ten rotational substates 3.5–4.3 Å; both purified

## ATP synthase subunit-e (T. brucei)
  binding: binds
